This is an account of results in PubChem BioAssay AID493014 (National Center for Advancing Translational Sciences (NCATS), 2011).

Usually AC50 stands for the concentration at which the activity in the assay is half-maximal.

Some of the results follow. These are further read-outs of the screen, such as a control signal, another cell line or another target. No call is given for them. Most of these compounds were active or inconclusive in the main read-out, so they are no random draw. Words in brackets tell the shape of the fitted curve; partial curves, single points and poor fits give uncertain potencies.

The test can be described thus: qHTS Assay to Find Inhibitors of Chronic Active B-Cell Receptor Signaling. The settings on record: ABC-DLBCL IkBa-CBG/CBR reporter, luminescence ratio (green luciferase fused to IkBa over red control in TMD8 lymphoma cells), 4 h. Put shortly: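 Cell line TMD8 (human ABC DLBCL), stably expressing tet-inducible CBG68-IkBa fusion and CBR; IMDM/0.5% FBS; cpd up to 46 uM; dox induction, 4 h, 37C/5% CO2; dual luminescence; green/red ratio; MG132 control.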

Setting [1] is: measured here: CBR red luminescence, cell number.
Setting [2] is: measured here: IkBa-CBG green luminescence.

As to `Nc1ccccc1SCc1csc(-c2ccc(Cl)cc2)n1`, the AC50 under setting [1] is 0.708 µM [rising, full curve, poor fit].

For `COc1ccc(C2CC(c3ccccc3)=NN2C(=O)CN2CCN(Cc3ccccc3)CC2)cc1` (stereo not given), under setting [1], the AC50 was 15.8 µM [rising, partial curve, poor fit].

With `CCn1c(=O)c([N+](=O)[O-])c(NCCN(C)C)c2ccccc21`, the half-maximal activity concentration (AC50) under setting [1] is 3.98 µM [falling, single point].

`COc1ccc(CNC(=O)CN2C(=O)CSc3ccc(S(=O)(=O)N4CCOCC4)cc32)c(OC)c1`: under setting [1], the AC50 was 11.2 µM [rising, partial curve, poor fit].

In the case of `CC(NC(=O)c1ccc(CS(=O)(=O)c2ccc(Cl)cc2)o1)c1ccc2c(c1)OCCO2` (stereo not given), the AC50 under setting [1] was 16.4 µM [falling, single point].

With `COc1ccc(NC(=O)c2ccco2)cc1NC(=O)COc1ccccc1`, under setting [1], the AC50 was 0.562 µM [rising, full curve, poor fit].

In the case of `CCOC(=O)c1ccc(NC(=O)c2c(NCc3cccs3)sc3c2CCCC3)cc1`, the AC50 under setting [1] was 2.51 µM [falling, full curve].

As to `CC(/C=N/NC(=O)c1cccnc1)=C\c1ccccc1`, under setting [1], the AC50 was 20 µM [falling, partial curve, poor fit].

Take `COCC1CCCN(Cc2cn(Cc3ccccc3)nc2-c2cc3ccccc3o2)C1` (stereo not given): the AC50 under setting [1] is 35.5 µM [falling, single point].

`Cc1ccc(C2=NN(CC(=O)NCCC(C)C)C(=O)CC2)cc1`: the AC50 under setting [1] is 5.62 µM [falling, single point] and the AC50 under setting [2] was 3.55 µM [rising, single point].

In the case of `COC(=O)/C(C#N)=C/c1c(Oc2cccc(C)c2C)nc2ccccn2c1=O`, under setting [1], the AC50 was 10 µM [rising, partial curve, poor fit].

For `Cc1nnc(Nc2ccc3c(c2)ncn3C)c2ccccc12`, under setting [1], the AC50 was 2.51 µM [falling, partial curve, poor fit].

In the case of `O=c1ccnc(SCCc2ccccc2)[nH]1`, the half-maximal activity concentration (AC50) under setting [1] was 22.4 µM [falling, single point].

As to `CCOCC(=O)Nc1cc(S(=O)(=O)N2CCOCC2)ccc1N1CCCCC1`, under setting [1], the AC50 is 2.24 µM [rising, partial curve, poor fit].

As to `Cc1ccn2c(C(=O)N/N=C\c3cccs3)c(C)nc2c1`, the AC50 under setting [1] was 6.51 µM [rising, partial curve, poor fit].

Consider `O=C(Nc1ccc(S(=O)(=O)Nc2ncccn2)cc1)c1ccc2ncsc2c1`, for which the AC50 under setting [1] was 15.8 µM [falling, partial curve].

As to `O=C(OCc1cc(=O)n2ccsc2n1)c1ccccc1NCCO`, the AC50 under setting [1] was 6.51 µM [falling, partial curve, poor fit].

In the case of `CC1(C)C(=O)CC[C@@]2(C)[C@H]1CC[C@@]1(C)CC3=C(CC[C@@H]12)[C@@]1(C)CCC(=O)C(C)(C)[C@@H]1CC3`, the AC50 under setting [1] was 32.6 µM [falling, partial curve, poor fit].

With `CCOC(=O)c1sc(NC(=O)c2ccc(S(=O)(=O)N3CCOCC3)cc2)nc1-c1ccccc1`, the AC50 under setting [1] was 2.59 µM [falling, full curve].

In the case of `COc1cc2nc(C3CCC3)nc(N3CCN(c4ccccn4)CC3)c2cc1OC`, the AC50 under setting [1] is 23.1 µM [falling, single point].

Consider `CCCN(CCC)c1ncnc2nc[nH]c12`, for which the AC50 under setting [1] is 1.64 µM [rising, partial curve, poor fit].

In the case of `COc1ccc(OC)c(C2CC(c3c(-c4ccccc4)c4cc(Cl)ccc4[nH]c3=O)=NN2S(C)(=O)=O)c1` (stereo not given), under setting [1], the AC50 was 5.62 µM [falling, single point].

As to `Cc1ccc(C(=O)c2cnc3cc4c(cc3c2S(=O)(=O)c2ccccc2)OCCO4)cc1`, under setting [1], the AC50 was 1.84 µM [falling, full curve].

In the case of `C/C(=N\NC(=O)c1ccn[nH]1)c1cn(C)nc1C`, the AC50 under setting [1] was 25.9 µM [falling, single point].

For `CN(C)S(=O)(=O)c1cc(NC(=O)COC(=O)/C=C/c2ccco2)ccc1Cl`, the AC50 under setting [1] was 35.5 µM [rising, single point].

As for `Cc1cc(NC(=O)c2ccc(S(=O)(=O)N3CCCC3)cc2)nc2c1c(=O)oc1ccccc12`, the AC50 is 0.231 µM [falling, full curve] under setting [1] and 3.26 µM [rising, full curve] under setting [2].

For the molecule `CC(C)CSc1ncnc2c1oc1nc3c(cc12)COC(C)(C)C3`, the AC50 under setting [1] was 18.4 µM [rising, single point].

As to `CC(=O)c1cccc(NC(=O)Nc2ccc3c(c2)N(C)C(=O)CS3)c1`, the AC50 under setting [1] was 29.1 µM [rising, single point].

Consider `CCCC(=O)Nc1nnc(Sc2ccc(N(C)C)cc2)s1`, for which the half-maximal activity concentration (AC50) under setting [1] is 5.17 µM [falling, single point].

Take `CCCC(C(=O)NCc1ccco1)N(C(=O)CNS(=O)(=O)c1ccccc1)c1ccc(OC)cc1` (stereo not given): under setting [1], the AC50 was 12.6 µM [falling, partial curve, poor fit].

As to `CSc1ccccc1NC(=O)C1CC(c2ccccc2O)=NO1` (stereo not given), the AC50 under setting [1] was 1.3 µM [falling, full curve, poor fit].

`CC(=O)Nc1ccc(-c2cn3ccsc3n2)cc1`: the AC50 under setting [1] is 16.4 µM [falling, partial curve, poor fit].

For `C=CCNCCCOc1ccc(Cl)cc1C(C)(C)C`, the AC50 under setting [1] was 35.5 µM [falling, single point].

For `COc1ccccc1NS(=O)(=O)c1ccc2[nH]c(=S)oc2c1`, the AC50 under setting [1] was 20.6 µM [rising, partial curve].

With `CC[N+]1(CC)CC2=Cc3c(ccc4ccccc34)CC2C1` (stereo not given), under setting [1], the AC50 was 2.31 µM [falling, partial curve, poor fit].

Regarding `CCCOc1ccc2oc(=O)c3c(c2c1)CCCN3C(=O)CN1CCc2ccccc2C1`, under setting [1], the AC50 is 35.5 µM [falling, single point].

With `C/C(=N/OCC(=O)Nc1ccccc1)c1cccs1`, under setting [1], the AC50 was 10 µM [falling, partial curve].

Consider `COc1ccc(-c2sc3cc(OC)c(OC)cc3c2C#CCO)cc1`, for which the concentration at half-maximal activity (AC50) under setting [1] was 8.2 µM [rising, partial curve].

On to `CC1CCCC(C)N1/N=C/c1ccc(Cl)cc1` (stereo not given), for which the AC50 under setting [1] was 29.1 µM [rising, single point].

As for `CC(=O)N(C)N(C)c1cc(C)nc(N)n1`, under setting [1], the AC50 is 3.16 µM [rising, single point].

On to `O=C(O)c1ccc(NCCc2ccc(Cl)cc2)c([N+](=O)[O-])c1`, for which the AC50 under setting [1] was 0.251 µM [falling, full curve, poor fit].

Regarding `CN1CCN(C(=O)c2cccn(Cc3ccc(C(F)(F)F)cc3)c2=O)CC1`, the AC50 under setting [1] was 3.16 µM [rising, single point].

Regarding `Cc1ccc(-c2cc(C(=O)N/N=C/c3ccccc3)n[nH]2)o1`, the AC50 under setting [1] is 1.58 µM [falling, full curve, poor fit].

Turning to `CNC(=O)c1cc(Nc2nnc(-c3ccc(C)c(S(N)(=O)=O)c3)c3ccccc23)ccc1OC`, the AC50 under setting [1] is 35.5 µM [falling, single point].

On to `Cc1nc(-c2ccccn2)nc(N2CCOCC2)c1Cl`, for which the AC50 under setting [1] was 11.2 µM [falling, single point].

With `COc1cccc(C(=O)Nc2cccc(S(=O)(=O)NC3=NCCC3)c2)c1`, under setting [1], the AC50 was 6.51 µM [falling, partial curve, poor fit].

In the case of `O=C1C2C3C=CC(CC3)C2C(=O)N1/N=C/c1ccc(O)c(O)c1` (stereo not given), under setting [1], the AC50 was 8.2 µM [falling, partial curve].

Take `CCCCCCOC(=O)c1ccc(N)cc1`: under setting [1], the AC50 was 12.6 µM [rising, partial curve, poor fit].

Regarding `CCOc1ccc(N2C(=O)Nc3ccc(Br)cc3C2(O)C(=O)NC(C)C)cc1` (stereo not given), under setting [1], the half-maximal activity concentration (AC50) was 10 µM [rising, partial curve].

Turning to `COc1cc(C(=O)NC(=S)Nc2ccc(NC(=O)c3ccco3)cc2)cc(OC)c1OC`, under setting [1], the AC50 was 18.4 µM [rising, partial curve, poor fit].

For the molecule `Cc1ccc(NC2c3ncccc3C(=O)N2C2CCCCC2)cc1` (stereo not given), the half-maximal activity concentration (AC50) under setting [1] was 11.2 µM [falling, single point].

`CC1(C)NC(=O)N(CC(O)Cn2c3ccccc3c3ccccc32)C1=O` (stereo not given): under setting [1], the AC50 is 35.5 µM [falling, single point].

As to `CSc1nsc(SCC(=O)Nc2ccc(Br)cn2)n1`, the AC50 under setting [1] is 11.2 µM [falling, single point].

On to `COc1cccc(NC(=O)CN(C)C(=O)c2cc(-c3ccccc3)nn2-c2ccccc2)c1`, for which, under setting [1], the AC50 is 6.51 µM [rising, partial curve, poor fit].

On to `CCOC(=O)C1(Cc2ccc(OC)cc2)CCN(C(=O)CCn2cccn2)CC1`, for which the AC50 under setting [1] was 35.5 µM [rising, single point].

Take `CCCCN(CC)CCCNC(=S)Nc1ccc2nc(N3CCN(CC)CC3)cc(C)c2c1`: under setting [1], the half-maximal activity concentration (AC50) was 2.51 µM [falling, full curve, poor fit].

Take `CCC(=O)N1CCc2cc(Br)cc(S(=O)(=O)N3CCC(C(=O)NC(C)(C)C)CC3)c21`: under setting [1], the AC50 was 12.6 µM [rising, partial curve, poor fit].

As to `O=c1c2cc(NC(=S)N3CCCCC3)ccc2nc2n1CCCCC2`, under setting [1], the half-maximal activity concentration (AC50) is 1.58 µM [rising, full curve].

On to `Cc1ccc(C(=O)c2coc3ccc(OCC(=O)O)cc23)cc1`, for which the concentration at half-maximal activity (AC50) under setting [1] is 14.6 µM [falling, single point].

As for `COc1cc(/C=N/NC(=O)CCC(=O)NCc2ccccc2)cc(OC)c1OC`, the AC50 under setting [1] was 14.6 µM [rising, partial curve, poor fit].

On to `Cc1ccc(-c2cc(C(=O)N/N=C/c3c[nH]c4ccccc34)n[nH]2)o1`, for which the AC50 under setting [1] is 14.6 µM [falling, single point].

For `COc1ccccc1OCC(=O)N/N=C/c1c(O)ccc2ccccc12`, the AC50 under setting [1] is 22.4 µM [falling, single point].

For the molecule `COc1ccccc1NC(=O)CSc1nnnn1-c1ccc2c(c1)OCO2`, under setting [1], the AC50 is 20.6 µM [falling, single point].
